Some of the results follow. Most values lie at the level of the controls, where differences are scatter.
compound: CN[C@@H]1C[C@H]2O[C@@](C)([C@@H]1OC)n1c3ccccc3c3c4c(c5c6ccccc6n2c5c31)C(=O)NC4 [staurosporine]; assay: log2 fold change of tryptic peptide abundance, ligand vs vehicle (limited proteolysis) (log2 ratio); higher = more trypsin-susceptible (destabilized); details: ligand concentration: 20 uM; sample: mouse liver crude lysate; replicate design: treated separately

Sequences of proteins named here, by UniProt entry; tags and fusion partners are left off. A change or cut given only in a name is not applied to a line headed by its entry.
UniProt P39098: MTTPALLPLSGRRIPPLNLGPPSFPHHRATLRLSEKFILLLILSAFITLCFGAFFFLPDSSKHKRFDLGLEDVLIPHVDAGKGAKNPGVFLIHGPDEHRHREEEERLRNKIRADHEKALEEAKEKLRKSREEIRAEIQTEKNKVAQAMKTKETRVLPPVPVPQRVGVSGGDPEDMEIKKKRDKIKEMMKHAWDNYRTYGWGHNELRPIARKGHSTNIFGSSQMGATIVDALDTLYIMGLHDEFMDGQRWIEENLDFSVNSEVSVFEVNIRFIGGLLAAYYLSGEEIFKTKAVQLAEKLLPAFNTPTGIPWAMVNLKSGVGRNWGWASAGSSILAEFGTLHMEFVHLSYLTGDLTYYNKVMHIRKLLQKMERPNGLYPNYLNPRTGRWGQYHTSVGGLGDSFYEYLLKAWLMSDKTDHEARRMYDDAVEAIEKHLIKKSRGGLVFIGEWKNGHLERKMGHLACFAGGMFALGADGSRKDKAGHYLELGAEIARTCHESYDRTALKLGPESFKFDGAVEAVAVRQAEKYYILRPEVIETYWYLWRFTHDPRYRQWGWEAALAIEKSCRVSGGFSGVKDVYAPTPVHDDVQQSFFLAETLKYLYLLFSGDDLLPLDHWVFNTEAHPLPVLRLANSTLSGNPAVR
UniProt P46718: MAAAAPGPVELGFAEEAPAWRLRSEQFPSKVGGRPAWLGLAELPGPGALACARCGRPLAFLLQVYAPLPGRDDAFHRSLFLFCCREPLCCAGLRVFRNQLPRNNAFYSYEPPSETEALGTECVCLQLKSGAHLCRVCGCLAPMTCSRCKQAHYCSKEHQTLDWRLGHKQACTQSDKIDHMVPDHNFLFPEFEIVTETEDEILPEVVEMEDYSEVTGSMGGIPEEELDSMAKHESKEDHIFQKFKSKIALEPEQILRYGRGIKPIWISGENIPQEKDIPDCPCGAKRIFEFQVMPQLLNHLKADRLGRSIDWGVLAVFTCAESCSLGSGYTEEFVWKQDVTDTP
UniProt P53995, whole entry: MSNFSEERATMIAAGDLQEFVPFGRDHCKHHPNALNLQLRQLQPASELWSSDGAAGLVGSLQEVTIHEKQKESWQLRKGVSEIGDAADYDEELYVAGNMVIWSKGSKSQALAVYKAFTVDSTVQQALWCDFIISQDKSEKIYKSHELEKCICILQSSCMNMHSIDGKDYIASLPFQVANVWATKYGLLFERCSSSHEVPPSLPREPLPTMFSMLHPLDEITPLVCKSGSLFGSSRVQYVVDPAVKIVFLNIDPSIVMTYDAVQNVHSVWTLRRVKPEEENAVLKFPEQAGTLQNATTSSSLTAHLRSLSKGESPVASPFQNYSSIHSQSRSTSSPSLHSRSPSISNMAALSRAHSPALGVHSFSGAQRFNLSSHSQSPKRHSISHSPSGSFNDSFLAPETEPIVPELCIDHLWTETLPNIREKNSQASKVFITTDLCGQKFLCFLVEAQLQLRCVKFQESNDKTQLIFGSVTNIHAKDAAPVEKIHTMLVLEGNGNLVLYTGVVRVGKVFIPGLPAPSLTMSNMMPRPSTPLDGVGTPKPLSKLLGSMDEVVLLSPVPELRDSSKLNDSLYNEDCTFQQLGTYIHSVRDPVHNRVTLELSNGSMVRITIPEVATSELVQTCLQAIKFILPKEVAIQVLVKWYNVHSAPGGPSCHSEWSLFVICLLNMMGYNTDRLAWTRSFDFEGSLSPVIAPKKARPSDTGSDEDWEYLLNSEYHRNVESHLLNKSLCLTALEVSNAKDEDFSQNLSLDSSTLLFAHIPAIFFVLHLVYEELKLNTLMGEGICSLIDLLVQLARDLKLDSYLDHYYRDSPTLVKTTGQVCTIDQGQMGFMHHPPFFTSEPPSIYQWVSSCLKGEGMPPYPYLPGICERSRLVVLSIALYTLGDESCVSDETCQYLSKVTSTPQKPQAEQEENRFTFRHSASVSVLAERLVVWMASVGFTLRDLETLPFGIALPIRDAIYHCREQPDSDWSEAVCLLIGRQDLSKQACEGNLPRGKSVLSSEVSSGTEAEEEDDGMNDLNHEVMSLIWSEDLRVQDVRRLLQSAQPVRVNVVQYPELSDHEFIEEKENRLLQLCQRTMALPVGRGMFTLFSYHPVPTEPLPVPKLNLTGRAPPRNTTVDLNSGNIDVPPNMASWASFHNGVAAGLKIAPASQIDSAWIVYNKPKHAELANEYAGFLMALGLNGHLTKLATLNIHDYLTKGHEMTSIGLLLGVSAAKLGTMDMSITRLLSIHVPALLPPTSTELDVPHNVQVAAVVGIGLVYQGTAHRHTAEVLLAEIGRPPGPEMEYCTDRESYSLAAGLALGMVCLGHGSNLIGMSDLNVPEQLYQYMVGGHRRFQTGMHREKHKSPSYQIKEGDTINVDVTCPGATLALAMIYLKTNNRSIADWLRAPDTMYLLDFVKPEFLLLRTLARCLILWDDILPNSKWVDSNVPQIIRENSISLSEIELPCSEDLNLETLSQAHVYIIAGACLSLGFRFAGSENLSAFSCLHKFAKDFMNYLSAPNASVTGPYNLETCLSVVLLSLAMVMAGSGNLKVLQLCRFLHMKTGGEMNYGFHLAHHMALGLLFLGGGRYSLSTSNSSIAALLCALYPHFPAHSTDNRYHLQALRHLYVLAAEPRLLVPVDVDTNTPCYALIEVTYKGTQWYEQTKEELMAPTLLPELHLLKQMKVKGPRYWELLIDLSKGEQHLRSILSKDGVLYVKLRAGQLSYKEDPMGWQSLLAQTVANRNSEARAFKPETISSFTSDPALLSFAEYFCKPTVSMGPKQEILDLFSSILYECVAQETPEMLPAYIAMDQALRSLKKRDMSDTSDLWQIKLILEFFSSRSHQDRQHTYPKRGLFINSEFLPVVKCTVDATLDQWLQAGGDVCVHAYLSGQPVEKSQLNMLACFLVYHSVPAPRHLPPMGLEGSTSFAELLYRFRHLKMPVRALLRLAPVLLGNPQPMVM
UniProt P49312: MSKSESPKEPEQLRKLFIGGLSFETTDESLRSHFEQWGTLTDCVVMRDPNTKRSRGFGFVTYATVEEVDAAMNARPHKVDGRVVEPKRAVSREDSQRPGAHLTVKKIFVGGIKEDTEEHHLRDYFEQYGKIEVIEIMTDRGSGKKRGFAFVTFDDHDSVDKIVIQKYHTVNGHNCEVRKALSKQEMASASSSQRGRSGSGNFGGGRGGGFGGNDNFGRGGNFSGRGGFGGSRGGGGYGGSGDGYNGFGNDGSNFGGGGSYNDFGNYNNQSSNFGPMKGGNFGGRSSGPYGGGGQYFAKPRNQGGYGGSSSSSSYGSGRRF
UniProt P41233: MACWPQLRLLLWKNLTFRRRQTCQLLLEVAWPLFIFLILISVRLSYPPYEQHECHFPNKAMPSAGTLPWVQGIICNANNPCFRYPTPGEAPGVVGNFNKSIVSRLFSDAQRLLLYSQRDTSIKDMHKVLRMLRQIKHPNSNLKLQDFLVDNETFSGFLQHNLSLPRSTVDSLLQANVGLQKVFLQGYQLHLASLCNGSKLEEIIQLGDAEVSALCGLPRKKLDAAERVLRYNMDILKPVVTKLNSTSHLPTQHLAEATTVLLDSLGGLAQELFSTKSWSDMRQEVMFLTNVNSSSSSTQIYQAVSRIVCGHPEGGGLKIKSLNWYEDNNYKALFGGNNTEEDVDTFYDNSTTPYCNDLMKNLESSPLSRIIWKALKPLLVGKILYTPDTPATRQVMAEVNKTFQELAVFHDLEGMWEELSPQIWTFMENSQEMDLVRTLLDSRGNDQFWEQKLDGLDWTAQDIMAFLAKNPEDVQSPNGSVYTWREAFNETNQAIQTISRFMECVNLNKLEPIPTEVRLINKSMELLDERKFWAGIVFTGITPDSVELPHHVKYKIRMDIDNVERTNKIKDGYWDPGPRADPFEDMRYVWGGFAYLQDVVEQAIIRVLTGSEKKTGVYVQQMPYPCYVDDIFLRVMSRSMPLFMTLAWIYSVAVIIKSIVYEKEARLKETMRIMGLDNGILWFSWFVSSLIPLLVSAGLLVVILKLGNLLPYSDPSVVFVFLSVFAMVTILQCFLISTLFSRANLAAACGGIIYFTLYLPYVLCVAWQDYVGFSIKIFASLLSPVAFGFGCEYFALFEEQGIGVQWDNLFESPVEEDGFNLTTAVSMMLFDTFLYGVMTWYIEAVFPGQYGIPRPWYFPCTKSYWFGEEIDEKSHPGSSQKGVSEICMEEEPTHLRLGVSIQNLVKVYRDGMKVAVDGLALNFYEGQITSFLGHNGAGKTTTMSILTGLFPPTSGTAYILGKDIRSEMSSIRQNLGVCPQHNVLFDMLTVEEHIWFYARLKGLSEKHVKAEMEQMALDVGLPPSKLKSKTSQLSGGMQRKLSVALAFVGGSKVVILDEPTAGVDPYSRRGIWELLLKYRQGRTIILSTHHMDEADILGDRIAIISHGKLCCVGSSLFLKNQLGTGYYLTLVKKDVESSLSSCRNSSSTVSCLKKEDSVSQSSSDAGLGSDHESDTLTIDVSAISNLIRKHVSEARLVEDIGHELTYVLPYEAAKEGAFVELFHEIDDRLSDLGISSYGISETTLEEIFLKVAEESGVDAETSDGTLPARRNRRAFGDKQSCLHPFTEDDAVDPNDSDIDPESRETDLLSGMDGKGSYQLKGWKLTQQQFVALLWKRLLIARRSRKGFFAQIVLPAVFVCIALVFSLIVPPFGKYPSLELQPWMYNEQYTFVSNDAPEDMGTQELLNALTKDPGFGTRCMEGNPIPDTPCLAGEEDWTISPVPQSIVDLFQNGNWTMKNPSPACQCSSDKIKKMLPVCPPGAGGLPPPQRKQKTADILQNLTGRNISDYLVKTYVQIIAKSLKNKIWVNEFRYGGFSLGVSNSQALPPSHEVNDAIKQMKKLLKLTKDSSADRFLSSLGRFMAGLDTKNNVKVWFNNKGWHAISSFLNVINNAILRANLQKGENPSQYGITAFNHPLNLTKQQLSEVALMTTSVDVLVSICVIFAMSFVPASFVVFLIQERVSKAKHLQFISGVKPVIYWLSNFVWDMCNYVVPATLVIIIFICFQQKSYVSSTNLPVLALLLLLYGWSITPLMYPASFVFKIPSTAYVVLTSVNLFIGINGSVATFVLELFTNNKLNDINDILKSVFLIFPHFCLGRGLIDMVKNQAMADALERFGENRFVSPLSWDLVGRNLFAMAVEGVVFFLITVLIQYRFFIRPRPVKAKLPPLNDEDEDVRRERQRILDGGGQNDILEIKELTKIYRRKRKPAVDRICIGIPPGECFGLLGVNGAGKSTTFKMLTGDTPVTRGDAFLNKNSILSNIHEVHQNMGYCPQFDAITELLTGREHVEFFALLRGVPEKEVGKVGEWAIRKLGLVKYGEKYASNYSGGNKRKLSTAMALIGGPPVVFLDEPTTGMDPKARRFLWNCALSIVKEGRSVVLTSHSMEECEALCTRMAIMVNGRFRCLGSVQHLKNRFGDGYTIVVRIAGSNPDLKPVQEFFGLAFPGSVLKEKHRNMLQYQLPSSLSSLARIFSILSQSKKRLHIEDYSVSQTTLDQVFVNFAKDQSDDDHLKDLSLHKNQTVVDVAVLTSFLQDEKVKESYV
UniProt P35639, whole entry: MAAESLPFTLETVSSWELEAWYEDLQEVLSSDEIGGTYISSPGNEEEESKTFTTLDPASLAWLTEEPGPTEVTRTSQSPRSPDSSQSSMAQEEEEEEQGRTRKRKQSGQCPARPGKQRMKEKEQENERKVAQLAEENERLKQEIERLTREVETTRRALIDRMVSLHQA
UniProt P53986: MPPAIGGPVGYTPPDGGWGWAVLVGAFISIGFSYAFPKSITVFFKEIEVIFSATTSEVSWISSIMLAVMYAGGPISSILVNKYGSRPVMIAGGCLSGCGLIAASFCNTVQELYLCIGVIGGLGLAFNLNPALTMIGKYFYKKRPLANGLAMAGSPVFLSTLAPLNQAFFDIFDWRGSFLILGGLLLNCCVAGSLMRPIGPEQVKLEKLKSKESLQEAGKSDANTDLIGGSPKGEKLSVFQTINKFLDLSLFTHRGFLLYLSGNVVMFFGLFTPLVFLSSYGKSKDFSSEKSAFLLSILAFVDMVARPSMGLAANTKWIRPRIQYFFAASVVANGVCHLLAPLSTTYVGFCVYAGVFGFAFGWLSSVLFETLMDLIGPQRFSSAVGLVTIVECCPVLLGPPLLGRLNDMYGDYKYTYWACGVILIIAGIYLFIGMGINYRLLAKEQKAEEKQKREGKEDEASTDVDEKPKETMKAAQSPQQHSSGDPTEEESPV
UniProt P47226: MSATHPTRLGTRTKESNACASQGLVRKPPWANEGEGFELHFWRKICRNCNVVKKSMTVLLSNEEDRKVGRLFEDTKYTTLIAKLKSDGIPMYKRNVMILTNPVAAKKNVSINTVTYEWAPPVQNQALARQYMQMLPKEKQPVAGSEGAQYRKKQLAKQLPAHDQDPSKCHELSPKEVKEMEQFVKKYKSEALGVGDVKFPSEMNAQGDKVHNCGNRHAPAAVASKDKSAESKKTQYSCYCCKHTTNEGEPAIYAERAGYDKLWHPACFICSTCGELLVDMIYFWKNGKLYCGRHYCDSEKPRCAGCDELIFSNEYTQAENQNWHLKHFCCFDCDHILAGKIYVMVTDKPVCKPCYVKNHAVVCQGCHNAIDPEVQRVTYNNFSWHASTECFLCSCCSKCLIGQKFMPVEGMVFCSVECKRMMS

Q: Which log2 fold change does the source give for “UniProt P39098 (peptide sequence: RIPPLNLGPPSFPHHR, peptide start residue: 13)” here?
A: Its log2 fold change is 0.355.

Q: How did the log2 fold change turn out when “UniProt P46718 (peptide sequence: DIPDCPCGAK, peptide start residue: 276)” was run?
A: The log2 fold change was 0.27.

Q: “UniProt P53995 (peptide sequence: FNLSSHSQSPKR, peptide start residue: 369)” was tested. Which log2 fold change did it give?
A: The log2 fold change was -0.241.

Q: How did the log2 fold change turn out when “UniProt P49312 (peptide sequence: YHTVNGHNCEVR, peptide start residue: 167)” was run?
A: Its log2 fold change is 0.377.

Q: With “UniProt P41233 (peptide sequence: TIILSTHHMDEADILGDR, peptide start residue: 1083)” as the target, how does the log2 fold change read?
A: The log2 fold change was 0.338.

Q: With “UniProt P35639 (peptide sequence: LTREVETTR, peptide start residue: 147)” as the target, how does the log2 fold change read?
A: Its log2 fold change is -0.0422.

Q: Which log2 fold change does the source give for “UniProt P53986 (peptide sequence: EDEASTDVDEKPKETMK, peptide start residue: 457)” here?
A: The log2 fold change was -0.212.

Q: How did the log2 fold change turn out when “UniProt P47226 (peptide sequence: YKSEALGVGDVK, peptide start residue: 187)” was run?
A: Its log2 fold change is 0.456.

— the supplement of paper PMC12819154, “High-throughput peptide-centric local stability assay extends protein–ligand identification to membrane proteins, tissues and bacteria” (Nature Structural & Molecular Biology, 2025)
